# In paper PMC11128212:
# The chains behind the UniProt entries cited, without tags or fusion partners. Residues count along the entry.
# UniProt P35968, residues 20-1356: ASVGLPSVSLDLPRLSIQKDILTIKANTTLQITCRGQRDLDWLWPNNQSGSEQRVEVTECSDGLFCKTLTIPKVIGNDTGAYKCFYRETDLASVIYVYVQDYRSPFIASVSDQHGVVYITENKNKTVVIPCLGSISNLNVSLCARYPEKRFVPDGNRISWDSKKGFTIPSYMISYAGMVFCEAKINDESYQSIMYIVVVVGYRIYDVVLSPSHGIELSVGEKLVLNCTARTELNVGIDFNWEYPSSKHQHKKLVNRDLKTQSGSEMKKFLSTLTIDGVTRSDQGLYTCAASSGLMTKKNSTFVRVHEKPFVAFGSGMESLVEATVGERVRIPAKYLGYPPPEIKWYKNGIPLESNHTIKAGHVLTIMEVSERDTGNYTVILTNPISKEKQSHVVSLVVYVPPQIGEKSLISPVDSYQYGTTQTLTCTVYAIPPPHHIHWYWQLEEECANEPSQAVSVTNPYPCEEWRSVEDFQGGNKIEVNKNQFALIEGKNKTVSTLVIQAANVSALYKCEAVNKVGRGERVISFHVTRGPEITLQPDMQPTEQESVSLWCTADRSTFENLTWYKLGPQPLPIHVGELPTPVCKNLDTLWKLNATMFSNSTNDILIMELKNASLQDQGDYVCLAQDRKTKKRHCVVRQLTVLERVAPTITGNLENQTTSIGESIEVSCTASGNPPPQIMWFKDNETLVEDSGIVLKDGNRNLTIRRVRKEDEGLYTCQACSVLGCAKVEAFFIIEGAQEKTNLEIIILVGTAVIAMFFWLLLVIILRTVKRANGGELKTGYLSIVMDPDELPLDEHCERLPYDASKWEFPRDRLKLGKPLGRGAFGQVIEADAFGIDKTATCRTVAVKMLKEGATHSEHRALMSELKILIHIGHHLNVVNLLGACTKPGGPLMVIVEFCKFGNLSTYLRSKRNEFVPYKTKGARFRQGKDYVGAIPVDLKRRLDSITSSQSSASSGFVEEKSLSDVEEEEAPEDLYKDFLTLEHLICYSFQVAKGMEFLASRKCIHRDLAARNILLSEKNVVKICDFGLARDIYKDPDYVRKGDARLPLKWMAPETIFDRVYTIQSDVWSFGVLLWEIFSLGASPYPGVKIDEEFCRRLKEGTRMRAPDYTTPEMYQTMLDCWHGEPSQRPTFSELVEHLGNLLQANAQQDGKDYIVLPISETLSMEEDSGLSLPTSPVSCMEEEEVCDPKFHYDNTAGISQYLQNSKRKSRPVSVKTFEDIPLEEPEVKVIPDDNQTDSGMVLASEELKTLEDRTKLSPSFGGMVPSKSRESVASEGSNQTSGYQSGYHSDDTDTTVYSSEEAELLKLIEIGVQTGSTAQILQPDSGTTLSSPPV
# UniProt Q9NPY3, residues 22-652: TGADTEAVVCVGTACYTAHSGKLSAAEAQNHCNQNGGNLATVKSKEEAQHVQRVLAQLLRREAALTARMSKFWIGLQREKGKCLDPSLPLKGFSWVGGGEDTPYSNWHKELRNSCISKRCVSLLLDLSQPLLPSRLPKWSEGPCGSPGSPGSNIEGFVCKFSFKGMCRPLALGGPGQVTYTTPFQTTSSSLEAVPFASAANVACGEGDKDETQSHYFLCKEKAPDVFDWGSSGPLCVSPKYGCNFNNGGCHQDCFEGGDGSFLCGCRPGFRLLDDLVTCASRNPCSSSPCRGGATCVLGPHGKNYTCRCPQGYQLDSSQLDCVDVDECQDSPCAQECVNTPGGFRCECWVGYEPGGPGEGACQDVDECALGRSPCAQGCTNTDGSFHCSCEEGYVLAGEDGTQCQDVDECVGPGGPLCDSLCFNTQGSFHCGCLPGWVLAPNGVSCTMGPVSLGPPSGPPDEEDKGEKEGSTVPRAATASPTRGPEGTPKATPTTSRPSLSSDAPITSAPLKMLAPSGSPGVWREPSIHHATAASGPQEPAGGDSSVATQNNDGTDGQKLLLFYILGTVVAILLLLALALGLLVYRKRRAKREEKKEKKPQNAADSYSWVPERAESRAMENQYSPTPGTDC
# UniProt P23467, residues 23-1997: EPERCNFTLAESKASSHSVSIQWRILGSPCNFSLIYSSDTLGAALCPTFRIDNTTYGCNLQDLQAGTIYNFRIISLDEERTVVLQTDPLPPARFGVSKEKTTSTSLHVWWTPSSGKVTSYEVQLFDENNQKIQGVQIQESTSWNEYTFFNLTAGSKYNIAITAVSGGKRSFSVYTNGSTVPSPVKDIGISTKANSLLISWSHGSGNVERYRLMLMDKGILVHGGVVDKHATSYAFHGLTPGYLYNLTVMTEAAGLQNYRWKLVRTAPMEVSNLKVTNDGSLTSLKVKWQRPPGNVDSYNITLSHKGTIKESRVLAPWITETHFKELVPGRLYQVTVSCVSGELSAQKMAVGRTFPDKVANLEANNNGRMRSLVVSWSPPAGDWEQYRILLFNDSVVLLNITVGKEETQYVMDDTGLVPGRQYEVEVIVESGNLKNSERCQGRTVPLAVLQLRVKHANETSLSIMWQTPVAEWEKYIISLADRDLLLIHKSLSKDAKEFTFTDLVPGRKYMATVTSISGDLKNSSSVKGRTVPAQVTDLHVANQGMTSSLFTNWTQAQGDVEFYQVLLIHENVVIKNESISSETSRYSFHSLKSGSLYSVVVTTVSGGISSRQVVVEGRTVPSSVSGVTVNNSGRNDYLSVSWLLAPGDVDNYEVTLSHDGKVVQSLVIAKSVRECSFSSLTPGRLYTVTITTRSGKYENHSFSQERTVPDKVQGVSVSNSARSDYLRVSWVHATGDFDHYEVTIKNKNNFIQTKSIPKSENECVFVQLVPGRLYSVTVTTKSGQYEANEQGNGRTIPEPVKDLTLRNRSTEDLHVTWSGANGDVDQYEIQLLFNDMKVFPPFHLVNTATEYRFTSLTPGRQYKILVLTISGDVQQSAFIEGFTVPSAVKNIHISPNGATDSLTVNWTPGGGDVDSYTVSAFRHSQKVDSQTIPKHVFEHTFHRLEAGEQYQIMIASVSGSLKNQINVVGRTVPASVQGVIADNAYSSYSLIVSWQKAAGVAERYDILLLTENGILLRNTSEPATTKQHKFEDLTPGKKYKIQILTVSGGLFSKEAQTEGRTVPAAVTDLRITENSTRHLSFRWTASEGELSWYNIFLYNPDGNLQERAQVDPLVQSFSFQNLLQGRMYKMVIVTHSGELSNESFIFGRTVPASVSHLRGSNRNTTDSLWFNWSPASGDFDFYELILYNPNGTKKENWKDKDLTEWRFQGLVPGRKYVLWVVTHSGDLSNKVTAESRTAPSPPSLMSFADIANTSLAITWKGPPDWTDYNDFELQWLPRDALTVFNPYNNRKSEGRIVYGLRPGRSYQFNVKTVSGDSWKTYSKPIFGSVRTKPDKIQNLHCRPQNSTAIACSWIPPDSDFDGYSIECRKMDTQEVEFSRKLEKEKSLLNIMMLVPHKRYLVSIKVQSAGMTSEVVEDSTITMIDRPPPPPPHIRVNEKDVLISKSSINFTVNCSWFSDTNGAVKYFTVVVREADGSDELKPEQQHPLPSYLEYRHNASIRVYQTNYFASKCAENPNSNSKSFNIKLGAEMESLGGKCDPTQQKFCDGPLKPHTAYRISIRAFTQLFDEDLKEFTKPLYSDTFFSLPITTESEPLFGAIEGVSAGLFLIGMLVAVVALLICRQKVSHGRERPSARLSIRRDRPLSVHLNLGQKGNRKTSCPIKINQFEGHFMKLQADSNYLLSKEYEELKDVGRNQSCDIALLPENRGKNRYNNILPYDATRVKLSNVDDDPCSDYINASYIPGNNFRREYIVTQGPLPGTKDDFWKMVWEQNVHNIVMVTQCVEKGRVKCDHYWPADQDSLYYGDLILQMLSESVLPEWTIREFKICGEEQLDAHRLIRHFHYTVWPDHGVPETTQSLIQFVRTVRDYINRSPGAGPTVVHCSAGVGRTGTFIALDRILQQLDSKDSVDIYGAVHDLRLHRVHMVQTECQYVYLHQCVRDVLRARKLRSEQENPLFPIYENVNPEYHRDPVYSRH
# These are yes or no findings as the source states them, for the method shown. In cells and extracts the contact can be indirect. Some binding calls cover weakened binding; strength is not graded here.
# How the values were obtained:
# [1] = target: vascular endothelial growth factor receptor 2 (human (endogenous in HDBECs)) (UniProt P35968); test: proximity ligation; in situ PLA (Duolink kit) on HDBEC monolayers with anti-VEGFR2, anti-VE-PTP and anti-CD93 antibodies; with/without VEGF (10 ng/mL, 5 minutes); control, CD93 siRNA or VE-PTP knock-down
# [2] = target: CD93 (human (endogenous in HDBECs)) (UniProt Q9NPY3); test: co-IP; CD93 precipitated from total protein extracts of cultured HDBECs with a Pierce co-IP kit; VEGFR2 detected by Western blot; IgG co-IP as control
# [3] = target: CD93 (human (endogenous in HDBECs)) (UniProt Q9NPY3); test: proximity ligation; in situ PLA (Duolink kit) on HDBEC monolayers with anti-VEGFR2, anti-VE-PTP and anti-CD93 antibodies; with/without VEGF (10 ng/mL, 5 minutes); control, CD93 siRNA or VE-PTP knock-down
binding [1],binding [2],binding [3],Substance
binds,–,–,Vascular endothelial protein tyrosine phosphatase (from UniProt P23467 23-1997) (enzyme)
–,binds,binds,vascular endothelial growth factor receptor 2 (from UniProt P35968 20-1356)
